Some of the results follow. Hit calls seldom repeat between salt and free forms of one compound.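 In K562 cells expressing nanoluciferase-fused kinases, luminescence was recorded at 4 h intervals between 2 and 18 h, normalized as percent of control with DMSO at 100% and a positive control at 0%. A significant (2 sigma) signal drop marks a time point as decreased. The authors' rule for a hit is not shown and takes in more than the number of time points.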
target: EGFR_G719S (UniProt P00533); test: kinase-Nluc reporter destabilization hit call (1 = scored as downregulated) (binary); higher = compound decreases kinase abundance; details: K562; 2-18 h

kinase-Nluc reporter destabilization hit call, inactive:
CC(C)(/C=C(\C#N)C(=O)N1CCC[C@@H](n2nc(-c3ccc(Oc4ccccc4)cc3F)c3c(N)ncnc32)C1)N1CCN(C2COC2)CC1 (2.5 µM) 0, CNC(=O)c1cccc2cc(Oc3ccnc4cc(OCC5(N)CC5)c(OC)cc34)ccc12 [Lucitanib] (10 µM) 0, COc1cc(F)cc([C@@H](CO)NC(=O)[C@@H](C)N2Cc3ccc(-c4nc(NC5CCOCC5)ncc4Cl)cc3C2=O)c1 [ERK1/2 inhibitor 2] (10 µM) 0, O=c1cc(-c2ccccc2)oc2c(O)c(O)ccc12 [7,8-Dihydroxyflavone] (10 µM) 0, C=CC(=O)N1CC[C@H](n2nc(C#Cc3cc(OC)cc(OC)c3)c3c(N)ncnc32)C1 [Futibatinib] (10 µM) 0, O=C1Nc2ccccc2/C1=C/c1ccc(F)cc1 (10 µM) 0, CN(C)Cc1ccc(-c2cnn3c(-c4cccc(NC(=O)c5cccc(C(F)(F)F)c5)c4)ccnc23)cc1 (2.5 µM) 0, Cc1c[nH]c(/C=C2\C(=O)Nc3ccccc32)c1CCC(=O)O (10 µM) 0, CC(C)c1ccc2oc3nc(N)c(C(=O)O)cc3c(=O)c2c1 [Amlexanox] (10 µM) 0, NS(=O)(=O)c1ccc(Nc2nc(OCC3CCCCC3)c3[nH]cnc3n2)cc1 (10 µM) 0, Cn1nc(C(C)(C)C)cc1NC(=O)Nc1ccc(Oc2ccncc2)cc1 (10 µM) 0, COc1ccc(F)c(F)c1C(=O)c1cnc(NC2CCN(S(C)(=O)=O)CC2)nc1N (2.5 µM) 0, COc1cc(C(=O)NC2CCN(C)CC2)ccc1Nc1ncc2c(n1)N(C1CCCC1)CC(F)(F)C(=O)N2C (10 µM) 0, CCN1C(=O)N(c2c(F)c(OC)cc(OC)c2F)Cc2cnc3[nH]c(CN4CCOCC4)cc3c21 [Pemigatinib] (10 µM) 0, COc1cc(Oc2ccnc3cc(OC)c(OC)cc23)ccc1NC(=O)NC(C)c1nccs1 (stereo not drawn) (2.5 µM) 0, C=CC(=O)N1C[C@H](Nc2ncnc3[nH]ccc23)CC[C@@H]1C [Ritlecitinib] (10 µM) 0, CC(C)(C)S(=O)(=O)c1cc2c(Nc3ccc4scnc4c3)ncnc2cc1OCCO (2.5 µM) 0, O=C(NOC[C@H](O)CO)c1ccc(F)c(F)c1Nc1ccc(I)cc1F (2.5 µM) 0, Cc1cccc([C@@H](CO)NC(=O)[C@@H](C)N2Cc3ccc(-c4nc(NC5CCOCC5)ncc4Cl)cc3C2=O)c1 [ERK1/2 inhibitor 1] (10 µM) 0, CNC(=O)c1cc(Oc2ccc(NC(=O)Nc3cc(C(C)(C)C)nn3-c3ccc4ncccc4c3)c(F)c2)ccn1 [Rebastinib] (2.5 µM) 0, CCCn1cnc2c(NCc3ccccc3)nc(NC(CC)CO)nc21 (stereo not drawn) [Ca2+ channel agonist 1] (2.5 µM) 0, Brc1c(Br)c(Br)c2n[nH]nc2c1Br (10 µM) 0, C=CC(=O)Nc1cccc(Nc2nc(Nc3ccc(OCCOC)cc3)ncc2F)c1 [Spebrutinib] (10 µM) 0, CC(C)=CC/C=C(\C)[C@H]1CC[C@]2(C)[C@@H]1[C@H](O)C[C@@H]1[C@@]3(C)CC[C@H](O[C@@H]4O[C@H](CO)[C@@H](O)[C@H](O)[C@H]4O[C@@H]4O[C@H](CO)[C@@H](O)[C@H](O)[C@H]4O)C(C)(C)[C@@H]3CC[C@]12C [Ginsenoside Rg5] (10 µM) 0, Cc1ncc(-c2ccnc(Nc3ccc(S(C)(=O)=O)cc3)n2)n1C(C)C (2.5 µM) 0, CN(C)CCOc1ccc(-c2nc(-c3ccncc3)c(-c3ccc4c(c3)CC/C4=N\O)[nH]2)cc1 (10 µM) 0, CCN(CCCOc1ccc2c(Nc3cc(CC(=O)Nc4cccc(F)c4)[nH]n3)ncnc2c1)CCOP(=O)(O)O [Barasertib] (10 µM) 0, C=CC(=O)N[C@H]1COC[C@H]1Nc1ncc2cc(-c3c(Cl)c(OC)cc(OC)c3Cl)c(=O)n(C)c2n1 (10 µM) 0

— the supplement of paper PMC12823440, “Inhibitors supercharge kinase turnover through native proteolytic circuits” (Nature, 2025)
